This assay is described as follows: qHTS Assay to Find Inhibitors of Chronic Active B-Cell Receptor Signaling. The note with it: ABC-DLBCL IkBa-CBG/CBR reporter, luminescence ratio (green luciferase fused to IkBa over red control in TMD8 lymphoma cells), 4 h. In short, it runs like this: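 TMD8 human ABC-DLBCL cells with doxycycline-inducible IκBα–green luciferase fusion and unfused red luciferase, in 0.5% FBS medium; compounds up to 46 uM, 4 h at 37C. Green/red luminescence ratio, filter-overlap corrected, fitted to concentration-response curves.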

Where [1] appears, read: measured here: CBR red luminescence, cell number.
Setting [2] is: measured here: IkBa-CBG green luminescence.

Consider 62 molecules from PubChem BioAssay AID493014 (National Center for Advancing Translational Sciences (NCATS), 2011).

Some of the results follow. These are further read-outs of the screen, such as a control signal, another cell line or another target. No call is given for them. The list favours compounds with an active or inconclusive main result. Words in brackets tell the shape of the fitted curve; partial curves, single points and poor fits give uncertain potencies.

One may read the AC50 as the concentration giving half of the maximal activity seen. For `CCCCn1c(O)c(C=NCCCN(C)C)c(=O)[nH]c1=O`, the AC50 under setting [1] is 11.2 µM [rising, partial curve, poor fit].

Regarding `CCOC(=O)c1[nH]c2ccc(Br)cc2c1NC(=O)CNC`, under setting [1], the AC50 was 29.1 µM [falling, single point].

Regarding `CC(c1ccccc1)N1CCN(C(=O)CCl)CC1` (stereo unspecified), the AC50 under setting [1] was 7.94 µM [falling, partial curve, poor fit].

As to `CCOC(=O)N1CCN(C(=O)CSCC(=O)Nc2nc(-c3ccc4c(c3)OCO4)cs2)CC1`, the concentration at half-maximal activity (AC50) under setting [1] is 0.562 µM [falling, full curve].

`CCOc1ccccc1NC(=O)CN(c1ccc(C)cc1)S(=O)(=O)c1c(C)noc1C`: the AC50 under setting [1] is 5.8 µM [falling, single point].

Turning to `Cc1c(CCO)c(=O)[nH]n1C(=O)c1ccc(F)cc1`, the AC50 under setting [1] was 3.98 µM [falling, full curve].

Take `Cc1nc2cc(C(=O)OCC(=O)Nc3ccc(C#N)cc3)ccc2n1-c1ccccc1`: under setting [1], the half-maximal activity concentration (AC50) is 18.4 µM [rising, partial curve, poor fit].

Regarding `CCCCc1ccc(-n2nnnc2SCC(=O)Nc2cc(OC)c([N+](=O)[O-])cc2C)cc1`, under setting [1], the AC50 was 6.51 µM [rising, single point].

With `CCOc1ccc(CCNS(=O)(=O)c2c(C)nc3scc(C)n3c2=O)cc1OCC`, the AC50 under setting [1] was 2.51 µM [rising, full curve, poor fit].

As for `O=C1C2C3C=CC(C3)C2C(=O)N1/N=C/c1cn(Cc2ccccc2)c2ccccc12` (stereo unspecified), under setting [1], the AC50 was 2.51 µM [rising, full curve].

`COC(=O)c1ccccc1N=Nc1c(N)n[nH]c1N`: the AC50 under setting [1] was 35.5 µM [falling, single point].

As for `CC(C)CCNC(=O)/C=C/c1ccc(Br)cc1`, the AC50 under setting [1] is 29.1 µM [falling, single point].

As for `CCCCC(=O)Nc1ccc(C(=O)NNC(=O)c2ccco2)cc1`, the AC50 under setting [1] was 35.5 µM [falling, single point].

With `Cc1ccc(CSc2nnc(-c3cccc(S(=O)(=O)N4CCOCC4)c3)n2CC(C)C)cc1`, under setting [1], the AC50 is 0.82 µM [falling, full curve, poor fit].

As to `COCCOC(=O)C1=C(C)OC(N)=C(C#N)C1c1ccc2c(c1)OCO2` (stereo unspecified), the AC50 under setting [1] is 16.4 µM [falling, single point].

With `CCOC(=O)N1CCN(S(=O)(=O)c2ccc(C(=O)Nc3sc4c(c3C(N)=O)CC(C)(C)NC4(C)C)cc2)CC1`, the AC50 under setting [1] is 35.5 µM [falling, single point].

As to `CCSc1cc(N2CCOCC2)nc(-c2ccccc2)n1`, the AC50 under setting [1] is 2.59 µM [rising, partial curve, poor fit].

For `CC(C)(C)c1ccc(Cn2c(=O)cnc3ccccc32)cc1`, the AC50 under setting [2] is 17.8 µM [falling, single point].

As for `Cn1nnnc1SCCNCc1ccncc1`, the AC50 under setting [1] is 3.66 µM [rising, single point].

Take `CC(=O)N1CCN(c2nc3ccc(Br)cc3s2)CC1`: the AC50 under setting [1] was 0.447 µM [rising, partial curve, poor fit].

For the molecule `C=CCOC(=O)C1=C(C)NC(SCC(=O)N(CC)CC)=C(C#N)C1c1ccco1` (stereo unspecified), under setting [1], the AC50 was 29.1 µM [falling, single point].

Consider `CCS(=O)(=O)N1Cc2ccccc2CC1C(=O)Nc1ccc(F)cc1` (stereo unspecified), for which, under setting [1], the AC50 was 7.94 µM [falling, partial curve, poor fit].

As for `Cn1c(/C(C#N)=C(\O)c2ccc([N+](=O)[O-])cc2)nc2ccccc21`, the AC50 under setting [1] was 0.112 µM [rising, full curve, poor fit].

As to `O=C(c1ccccc1)c1c(O)nc(-c2ccccc2)n(-c2ccccc2)c1=O`, the AC50 under setting [1] is 10.3 µM [falling, partial curve].

For `c1ccc2nc(N3CCOCC3)cnc2c1`, under setting [1], the AC50 is 0.103 µM [rising, full curve, poor fit].

With `COc1cc(NC(=O)C(=O)NCCN(C)C)c(OC)cc1Cl`, the AC50 under setting [1] was 15.8 µM [rising, single point].

Consider `CC(C)OCc1ccc(C(=O)N2CCN(CC(=O)N3CCCC3)CC2)cc1`, for which the concentration at half-maximal activity (AC50) under setting [1] is 0.0731 µM [rising, full curve, poor fit].

For the molecule `N#Cc1ncc(C(F)(F)F)cc1Sc1ccccc1N`, the concentration at half-maximal activity (AC50) under setting [1] is 29.1 µM [rising, single point].

Consider `O=C(Nc1ccc(Cl)cc1)Nc1ccc(-c2cnco2)cc1`, for which the AC50 under setting [1] was 10 µM [rising, partial curve].

For the molecule `COc1ccc(/C=C\C(=O)CC(O)(c2ccccc2)C(F)(F)F)cc1` (stereo unspecified), under setting [1], the AC50 was 1.16 µM [falling, partial curve, poor fit].

With `O=C(Nc1ccccc1C(=O)Nc1ccncc1)c1ccc([N+](=O)[O-])cc1`, the AC50 under setting [1] was 2.51 µM [falling, full curve].

Turning to `CCN1CCN(c2nc3c(c(=O)[nH]c(=O)n3C)n2Cc2ccccc2F)CC1`, the AC50 under setting [1] is 35.5 µM [rising, single point].

On to `Cc1sc(NC(=O)c2ccco2)c(C(c2cccnc2)N2CCC(C)CC2)c1C` (stereo unspecified), for which the AC50 under setting [1] is 1.3 µM [falling, partial curve, poor fit].

Consider `O=C(Nc1cc(C(F)(F)F)ccc1N1CCOCC1)C1=COCCO1`, for which the AC50 under setting [1] was 4.61 µM [falling, partial curve].

Consider `COc1ccc(CCn2c(=N)c(C(=O)NC3CCCCC3)cc3c(=O)n4ccccc4nc32)cc1`, for which, under setting [1], the AC50 is 3.55 µM [falling, single point].

For `CC(=O)c1sc(NC(=O)c2cccs2)nc1C`, the half-maximal activity concentration (AC50) under setting [1] was 8.91 µM [falling, partial curve, poor fit].

For the molecule `O=C(CN1CCN(Cc2cccc(Cl)c2)C1=O)NCc1ccc(F)cc1`, the AC50 under setting [1] was 22.4 µM [falling, partial curve, poor fit].

For the molecule `COc1ccc(C(=O)NCC2(c3ccccc3)CCOCC2)cc1`, under setting [1], the AC50 was 0.316 µM [falling, full curve, poor fit].

Turning to `COc1ccc2[nH]c(C)c(C(=O)CN3CCN(C/C=C/c4ccccc4)CC3)c2c1`, the AC50 under setting [1] is 28.2 µM [falling, single point].

On to `O=C1C(NS(=O)(=O)c2cccs2)=C(N2CCN(c3cccc(Cl)c3)CC2)C(=O)c2ccccc21`, for which the AC50 under setting [1] was 20.6 µM [rising, partial curve, poor fit].

On to `COc1ccccc1N1CCN(C(=O)C(C)NC(=O)c2ccco2)CC1` (stereo unspecified), for which the AC50 under setting [1] was 0.651 µM [rising, full curve, poor fit].

Turning to `Cc1ccc(Cc2cnc(N3C(=N)SC(C)C3=O)s2)cc1` (stereo unspecified), the AC50 is 3.55 µM [rising, partial curve, poor fit] under setting [1] and 3.16 µM [falling, single point] under setting [2].

As to `O=c1cc2c(nn1Cc1ccc(Cl)cc1)-c1ccccc1CC2`, under setting [1], the AC50 is 29.1 µM [falling, partial curve, poor fit].

In the case of `C/C(=N/NC(=O)c1ccc(C)s1)c1cccnc1`, under setting [1], the AC50 was 2.24 µM [falling, full curve, poor fit].

Regarding `CCc1ccc2nc(N(Cc3cccnc3)C(C)=O)sc2c1`, the AC50 under setting [1] is 35.5 µM [rising, single point].

Consider `O=C(CC(NC(=O)c1ccccc1)c1ccccc1)Nc1ccc(F)c(F)c1` (stereo unspecified), for which the AC50 under setting [1] was 6.31 µM [rising, single point].

As to `COc1ccc(CCNc2nc3ccccc3n3nnnc23)cc1OC`, the half-maximal activity concentration (AC50) under setting [1] was 2.59 µM [falling, partial curve].

For the molecule `Cc1cc(C)c2c(-n3cccc3)c(C(=O)NNS(=O)(=O)c3ccc(Br)cc3)sc2n1`, the AC50 under setting [1] was 3.55 µM [falling, partial curve].

Regarding `COc1cccc(OCC(=O)NNC(=O)C(=O)Nc2cccc(C)c2)c1`, under setting [1], the AC50 is 1.41 µM [falling, single point].

For `Cc1ccc(Cl)cc1N1CCN(C(=O)c2ccc(CN3CCOCC3)cc2)CC1`, under setting [1], the AC50 was 32.6 µM [falling, single point].

`O=C(NC(Nc1nc2ccc([N+](=O)[O-])cc2s1)(C(F)(F)F)C(F)(F)F)c1ccccc1Cl`: under setting [1], the half-maximal activity concentration (AC50) is 29.1 µM [falling, single point].

Consider `CCc1ccc2[nH]c(O)c(N=Nc3nc(-c4ccccc4)cs3)c2c1`, for which the concentration at half-maximal activity (AC50) under setting [1] was 5.01 µM [rising, partial curve, poor fit].

On to `COc1ccc(CC(=O)Nc2ccc(-c3noc(-c4ccc(Cl)cc4)n3)cc2)cc1`, for which the AC50 under setting [1] is 29.1 µM [rising, single point].

As for `Cc1ccc(-c2nc(Nc3ccc(N4CCOCC4)cc3)c3ccccc3n2)cc1`, the concentration at half-maximal activity (AC50) under setting [1] is 14.1 µM [falling, partial curve, poor fit] and the AC50 under setting [2] was 11.2 µM [rising, partial curve, poor fit].

In the case of `COc1cccc(N(C(=O)CNC(=O)c2ccco2)C(C(=O)NC2CCCC2)c2ccncc2)c1` (stereo unspecified), the concentration at half-maximal activity (AC50) was 6.51 µM [falling, single point] under setting [1] and 3.66 µM [rising, partial curve, poor fit] under setting [2].

On to `CCOCCCNC(=O)C(c1ccc(Cl)cc1)N(Cc1cccs1)C(=O)CNC(C)=O` (stereo unspecified), for which the AC50 under setting [1] was 32.6 µM [rising, partial curve, poor fit].

As for `CC(=O)Oc1ccc(-c2ccc(C(=O)Nc3cccc(S(=O)(=O)N4CCOCC4)c3)cc2)cc1`, the AC50 under setting [1] is 35.5 µM [falling, single point].

Turning to `CCC(CC)NC(=O)COC(=O)c1ccc(NS(=O)(=O)c2ccc3c(c2)OCCO3)cc1`, the AC50 reads like this: under setting [1], 16.4 µM [rising, partial curve]; under setting [2], 18.4 µM [falling, partial curve, poor fit].

Turning to `CCN1CCN(CC(O)COCC2COc3ccccc3O2)CC1` (stereo unspecified), the AC50 under setting [1] is 1.58 µM [rising, full curve].

In the case of `Cc1ccc(N2CC(C(=O)OCc3nnc(-c4ccccc4)o3)CC2=O)cc1` (stereo unspecified), under setting [1], the AC50 was 10.3 µM [rising, partial curve, poor fit].

`CCOc1cccc(C(=O)Nc2cccc(C(=O)NCC(C)C)c2)c1`: the AC50 under setting [1] is 14.6 µM [falling, partial curve].

Regarding `O=C(Nc1ccc(Cl)cc1)Nc1cccc(C(=O)O)c1`, the AC50 under setting [1] was 0.708 µM [falling, full curve].
